# Like-named read-outs stand apart in the source and are kept apart here. These are yes or no findings as the source states them, for the method shown. Binding seen in cells or lysates may run through a third protein. Some entries that bind do so weakly or less than the wild type.
# By UniProt entry, the sequences of proteins in these tests, tags left out.
# UniProt P15682: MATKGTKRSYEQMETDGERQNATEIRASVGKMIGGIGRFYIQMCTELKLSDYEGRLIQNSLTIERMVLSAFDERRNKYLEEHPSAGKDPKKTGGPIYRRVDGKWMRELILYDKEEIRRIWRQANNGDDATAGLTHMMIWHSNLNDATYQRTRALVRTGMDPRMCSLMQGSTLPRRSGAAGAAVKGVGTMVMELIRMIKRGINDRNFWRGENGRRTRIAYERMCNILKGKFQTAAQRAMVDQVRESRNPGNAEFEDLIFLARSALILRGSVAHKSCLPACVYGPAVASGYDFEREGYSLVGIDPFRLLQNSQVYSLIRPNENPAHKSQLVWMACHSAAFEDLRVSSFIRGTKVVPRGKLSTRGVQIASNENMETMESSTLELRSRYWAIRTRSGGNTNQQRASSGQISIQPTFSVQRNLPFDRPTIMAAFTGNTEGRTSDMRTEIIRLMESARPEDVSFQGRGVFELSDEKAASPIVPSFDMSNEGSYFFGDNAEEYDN
# Experiments:
# [1] = target: Influenza A virus nucleoprotein (NP), strain A/WSN/33 (H1N1) (influenza A virus A/WSN/33 (H1N1)) (UniProt P15682)
# [2] = target: Influenza A virus nucleoprotein (NP), strain A/WSN/33 (H1N1) (influenza A virus A/WSN/33 (H1N1)) (UniProt P15682); remark: listed apart in the source
# [3] = target: WSN NP expressed in HEK293T cells (influenza A virus A/WSN/33 (H1N1)) (UniProt P15682); assay: co-IP
binder,measurement,setting,value
"hnRNPM (protein, UniProt P52272 1-730) MAAGVEAAAEVAATEIKMEEESGAPGVPSGNGAPGPKGEGERPAQNEKRKEKNIKRGGNRFEPYANPTKRYRAFITNIPFDVKWQSLKDLVKEKVGEVTYVELLMDAEGKSRGCAVVEFKMEESMKKAAEVLNKHSLSGRPLKVKEDPDGEHARRAMQKVMATTGGMGMGPGGPGMITIPPSILNNPNIPNEIIHALQAGRLGSTVFVANLDYKVGWKKLKEVFSMAGVVVRADILEDKDGKSRGIGTVTFEQSIEAVQAISMFNGQLLFDRPMHVKMDERALPKGDFFPPERPQQLPHGLGGIGMGLGPGGQPIDANHLNKGIGMGNIGPAGMGMEGIGFGINKMGGMEGPFGGGMENMGRFGSGMNMGRINEILSNALKRGEIIAKQGGGGGGGSVPGIERMGPGIDRLGGAGMERMGAGLGHGMDRVGSEIERMGLVMDRMGSVERMGSGIERMGPLGLDHMASSIERMGQTMERIGSGVERMGAGMGFGLERMAAPIDRVGQTIERMGSGVERMGPAIERMGLSMERMVPAGMGAGLERMGPVMDRMATGLERMGANNLERMGLERMGANSLERMGLERMGANSLERMGPAMGPALGAGIERMGLAMGGGGGASFDRAIEMERGNFGGSFAGSFGGAGGHAPGVARKACQIFVRNLPFDFTWKMLKDKFNECGHVLYADIKMENGKSKGCGVVKFESPEVAERACRMMNGMKLSGREIDVRIDRNA",binding,[1],binds
"KHSRP (protein, UniProt Q92945 1-711) MSDYSTGGPPPGPPPPAGGGGGAGGAGGGPPPGPPGAGDRGGGGPGGGGPGGGSAGGPSQPPGGGGPGIRKDAFADAVQRARQIAAKIGGDAATTVNNSTPDFGFGGQKRQLEDGDQPESKKLASQGDSISSQLGPIHPPPRTSMTEEYRVPDGMVGLIIGRGGEQINKIQQDSGCKVQISPDSGGLPERSVSLTGAPESVQKAKMMLDDIVSRGRGGPPGQFHDNANGGQNGTVQEIMIPAGKAGLVIGKGGETIKQLQERAGVKMILIQDGSQNTNVDKPLRIIGDPYKVQQACEMVMDILRERDQGGFGDRNEYGSRIGGGIDVPVPRHSVGVVIGRSGEMIKKIQNDAGVRIQFKQDDGTGPEKIAHIMGPPDRCEHAARIINDLLQSLRSGPPGPPGGPGMPPGGRGRGRGQGNWGPPGGEMTFSIPTHKCGLVIGRGGENVKAINQQTGAFVEISRQLPPNGDPNFKLFIIRGSPQQIDHAKQLIEEKIEGPLCPVGPGPGGPGPAGPMGPFNPGPFNQGPPGAPPHAGGPPPHQYPPQGWGNTYPQWQPPAPHDPSKAAAAAADPNAAWAAYYSHYYQQPPGPVPGPAPAPAAPPAQGEPPQPPPTGQSDYTKAWEEYYKKIGQQPQQPGAPPQQDYTKAWEEYYKKQAQVATGGGPGAPPGSQPDYSAAWAEYYRQQAAYYGQTPGPGGPQPPPTQQGQQQAQ",binding,[2],binds
"PSPC1 in HEK293T cells (protein, UniProt Q8WXF1 1-523) MMLRGNLKQVRIEKNPARLRALESAVGESEPAAAAAMALALAGEPAPPAPAPPEDHPDEEMGFTIDIKSFLKPGEKTYTQRCRLFVGNLPTDITEEDFKRLFERYGEPSEVFINRDRGFGFIRLESRTLAEIAKAELDGTILKSRPLRIRFATHGAALTVKNLSPVVSNELLEQAFSQFGPVEKAVVVVDDRGRATGKGFVEFAAKPPARKALERCGDGAFLLTTTPRPVIVEPMEQFDDEDGLPEKLMQKTQQYHKEREQPPRFAQPGTFEFEYASRWKALDEMEKQQREQVDRNIREAKEKLEAEMEAARHEHQLMLMRQDLMRRQEELRRLEELRNQELQKRKQIQLRHEEEHRRREEEMIRHREQEELRRQQEGFKPNYMENREQEMRMGDMGPRGAINMGDAFSPAPAGNQGPPPMMGMNMNNRATIPGPPMGPGPAMGPEGAANMGTPMMPDNGAVHNDRFPQGPPSQMGSPMGSRTGSETPQAPMSGVGPVSGGPGGFGRGSQGGNFEGPNKRRRY",binding,[3],binds
